Values quoted from earlier work as cited in patent US6884429B2, “Medical devices incorporating deuterated rapamycin for controlled delivery thereof” (Isotechnika International Inc., priority 1997, dated 2005).

- solubility in alcohols, halogenated hydrocarbons and dimethyl sulfoxide (alcohols, halogenated hydrocarbons and dimethyl sulfoxide): soluble
- solubility in water, aliphatic hydrocarbons and diethyl ether (water, aliphatic hydrocarbons and diethyl ether): sparingly soluble
Compound: CO[C@H]1C[C@@H]2CC[C@@H](C)[C@@](O)(O2)C(=O)C(=O)N2CCCC[C@H]2C(=O)O[C@H]([C@H](C)C[C@@H]2CC[C@@H](O)[C@H](OC)C2)CC(=O)[C@H](C)/C=C(\C)[C@@H](O)[C@@H](OC)C(=O)[C@H](C)C[C@H](C)/C=C/C=C/C=C/1C [Rapamycin]
